From patent US20050288347A1, “Certain triazole-based compounds, compositions, and uses thereof” (priority 2004, published 2005)
At least one compound was matched to its structure with a doubt left.

Each compound was assayed against protein kinase (assay: HTS ATP-utilizing enzyme assay, off-chip mobility-shift format (Caliper HTS 250)). Conditions: kinase(s) for which the compound exhibits protein kinase inhibitory activity; test compound 10 μM; active = greater than three-sigma from the mean activity of inactive compounds.
Format: biochemical, human
Text: The following procedures describe the reagent and plate preparation for a HTS of an ATP-utilizing enzyme, such as a protein kinase, run in an off-chip mobility-shift assay format. The following provides an HTS protocol for running a protein kinase HTS screen on a Caliper HTS 250 microfluidics system. The following parameters are dependent on the protein kinase used and can be determined by one skilled in the art as part of a typical assay development process. For example, the peptide substrate used can be identified from the current literature, by screening a peptide library of potential protein kinase substrates, or by other applicable means accepted in the field.
The following table provides typical screen assay parameters appropriate for a Caliper HTS 250 microfluidics system.
The reagents and buffers listed in the following table are generally applicable for developing and running an HTS screen on a human protein kinase using the Caliper HTS 250 system.
The following reagents were prepared using the previously described buffers.
A 2× Master Buffer solution was prepared by combining 200 mL of 1 M HEPES, pH 7.5, 2 mL of 10% Triton X-100, 20 mL of 10% BSA, and 778 mL of H2O.
Assays to determine the kinase inhibitory activity of chemical entities of the present disclosure were performed using a Caliper HTS 250 microfluidics device, Greiner U-bottom assay plates, a Multidrop for transfer of reagents, and Biomek FX (AMNCBM03) software. Initially, 2.4 μL of a 1 mM solution of a test compound in 100% DMSO was added to a well of the Greiner U-bottom plate. A single Greiner U-bottom plate having 24×16 wells could include multiple test compounds. […] Using the Biomek FX, 10 μL of 0.5 M EDTA was added by the span-8 to wells, indicated as 100% Control and 2.4 μL of 100% DMSO was added by the span-8 to wells, indicated as 0% Control. […] The total reaction volume in each well was 25 μL, and the concentration of the test compound was 10 μM. The assay plate was incubated for 2.5 hrs at 20° C. to 22° C. […] The inhibition of the ATP-utilizing enzyme, such as a particular protein kinase, was determined by measuring the ratio of the peptide substrate to phosphorylated product for each well of the assay plate using the Caliper HTS 250 system.
The use of three-sigma statistical limits represents a conservative method for declaring potential hits among targets. The three-sigma activity, as well as the mean population activity, can be different for each target enzyme.

| SMILES | Kinase |
| --- | --- |
| O=C(O)CSc1nnc(CNc2cccc(Cl)c2)n1-c1ccc(Cl)cc1 | p38-α |

Same assay, conditions: test compound 10 μM; active = activity greater than three-sigma from the mean of the predominately inactive population for that enzyme

| SMILES | protein kinase against which the compound exhibits inhibitory activity (Table 3) |
| --- | --- |
| CC(=O)c1cccc(-n2c(SCCCCc3ccccc3)nnc2-c2cccc(Cl)c2)c1 | p38-α |
| COc1ccccc1-n1c(SCCCCc2ccccc2)nnc1-c1cc(=O)c2ccccc2[nH]1 | p38-α |
| CCN(C(=O)CSc1nnc(-c2ccccc2O)n1-c1ccccc1OC)c1ccccc1 | p38-α |
| COc1ccccc1-n1c(SCC2COc3ccccc3O2)nnc1-c1cccc(Cl)c1 (centres unmarked) | p38-α |
| COc1ccccc1-n1c(Cc2cccs2)nnc1SCCCCc1ccccc1 | p38-α |
| COCc1nnc(SCCCCc2ccccc2)n1-c1ccccc1OC | p38-α |
| CCCCn1c(SCCCCc2ccccc2)nnc1-c1cccc(Cl)c1 | p38-α |
| COc1ccccc1-n1c(SCC(=O)NCCN(C)C)nnc1-c1ccccc1O | P70S6K1 |
| COc1ccc(-c2nnc(SCC(=O)N3CCN(C)CC3)n2-c2ccccc2)cc1 | P70S6K1 |
| COc1ccccc1-n1c(OCCCCc2ccccc2)nnc1-c1cccs1 [4-(2-methoxyphenyl)-3-(4-phenylbutoxy)-5-(thiophen-2-yI)-4H-] | p38-a |
